Assay results as given in PubChem BioAssay AID1671190 (National Center for Advancing Translational Sciences (NCATS), 2021).
About 6,100 (1.1%) of roughly 580,000 compounds were called active. Inconclusive means that the source gave no clear call. Such entries were picked first, then a sample of the others. The call rests on the fitted dose curve; in most records, active means well fitted inhibition curve with a large enough effect; inconclusive means small, poorly fitted or top-dose-only effect, or another doubt; inactive means no such curve, though single readings can be large or run the other way. A potency beside an inconclusive call is a rough fit, not a confirmed value.

Protein sequences, listed by entry. Tags and fused reporters are not part of them.
UniProt P18054, whole entry, looked up: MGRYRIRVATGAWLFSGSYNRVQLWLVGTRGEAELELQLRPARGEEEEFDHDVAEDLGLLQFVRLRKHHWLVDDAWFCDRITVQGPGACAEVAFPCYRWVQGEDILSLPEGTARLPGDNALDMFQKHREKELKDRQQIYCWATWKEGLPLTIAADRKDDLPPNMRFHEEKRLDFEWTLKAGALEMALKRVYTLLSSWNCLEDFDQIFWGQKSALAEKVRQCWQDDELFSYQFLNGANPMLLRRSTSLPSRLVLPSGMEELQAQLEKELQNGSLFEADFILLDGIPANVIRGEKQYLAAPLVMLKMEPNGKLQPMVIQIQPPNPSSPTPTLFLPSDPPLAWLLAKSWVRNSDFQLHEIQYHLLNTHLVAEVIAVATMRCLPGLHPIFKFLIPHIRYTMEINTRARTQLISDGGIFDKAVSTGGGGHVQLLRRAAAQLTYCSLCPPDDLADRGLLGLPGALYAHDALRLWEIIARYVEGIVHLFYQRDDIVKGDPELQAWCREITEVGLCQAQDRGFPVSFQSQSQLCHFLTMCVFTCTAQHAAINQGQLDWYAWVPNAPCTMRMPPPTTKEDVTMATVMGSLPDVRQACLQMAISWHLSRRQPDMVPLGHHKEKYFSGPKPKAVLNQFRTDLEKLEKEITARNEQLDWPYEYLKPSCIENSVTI

biological target: Polyunsaturated fatty acid lipoxygenase ALOX12 (Homo sapiens) (UniProt P18054); assay: Primary qHTS assay for inhibitors of human arachidonate 12S-lipoxygenase (ALOX12): Round 2; details: purified 12hLO, xylenol orange hydroperoxide absorbance; activity change, negative = inhibition: at 108 µM (top of the series) unless noted
How it was run: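 Purified human 12hLO at 150 nM in 25 mM Hepes, 0.01% Triton X-100, pH 7.0, preincubated 15 min at room temperature with compound. Reaction started with 40 uM arachidonic acid, 30 min at room temperature. Hydroperoxide measured by Fe-xylenol orange, 573/405 nm absorbance ratio.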
On the % scale 0 is the no-effect control and ±100 the full control effect; potency means the concentration at half of the fitted maximal effect.

Q: With `Cc1ccc(NC(=S)NC2CCN(Cc3ccccc3)CC2)cc1C` as the molecule, how does the Potency read?
A: inconclusive: 44.7 µM [inhibitor, partial curve, poor fit]

Q: `Cc1ccc(NC(=S)NC2CCSc3ccccc32)cc1` (configuration not stated) was tested. Which Potency did it give?
A: inconclusive: 44.7 µM [inhibitor, partial curve, poor fit]

Q: With `O=[N+]([O-])c1cccc(-c2noc([C@@H]3Cc4nc[nH]c4CN3Cc3ccc(F)cc3)n2)c1` as the molecule, how does the Potency read?
A: inactive

Q: For `COc1ccc(C(=O)N2CCNC(=O)C2)cc1S(=O)(=O)Nc1ccc(Br)cc1`, which Potency is on record?
A: inactive

Q: Which Potency does the source give for `C[C@@H]1CN([C@H](C)CO)C(=O)CCCn2cc(nn2)CO[C@H]1CN(C)S(=O)(=O)c1ccc(-n2cccn2)cc1` here?
A: inconclusive: 1.78 µM [inhibitor, full curve, poor fit]

Q: For `N#Cc1c(-c2cccs2)nc(SCC(=O)c2ccc(Br)cc2)[nH]c1=O`, which Potency is on record?
A: active: 7.08 µM

Q: For `Cc1cc(-c2ccc(S(=O)(=O)N(C)c3ccc(C)c(C)c3)s2)on1`, which Potency is on record?
A: inactive

Q: `COC(=O)[C@@H]1Cc2nc[nH]c2CN1Cc1ccc([N+](=O)[O-])cc1` was tested. Which Potency did it give?
A: active: 10 µM

Q: How did the Potency turn out when `NC(=O)CC1CCN(C(=O)c2cc(=O)c3ccccc3o2)CC1` was run?
A: inconclusive: 126 µM [inhibitor, single point]

Q: Which Potency does the source give for `CCCCCOc1ccc(CSC2=NCCN2)cc1[N+](=O)[O-]` here?
A: inconclusive: 44.7 µM [inhibitor, partial curve, poor fit]

Q: How did the Potency turn out when `CCc1c(-c2cccc(Br)c2)ncn1CCc1ccccc1OC` was run?
A: inconclusive: 50.1 µM [inhibitor, partial curve, poor fit]

Q: How did the Potency turn out when `Cc1cccc(NC(=O)C2CCN(S(=O)(=O)c3cccs3)CC2)c1` was run?
A: inactive

Q: With `O=C(c1ccc2c(c1)OCO2)C1CCCN(Cc2cn[nH]c2-c2cccc(F)c2)C1` (configuration not stated) as the molecule, how does the Potency read?
A: inactive

Q: Which Potency does the source give for `CC(C)Cc1ccc(CN2CCC3(Cc4ccccc4CNC3=O)C2)cc1` (configuration not stated) here?
A: inconclusive: 56.2 µM [inhibitor, partial curve]

Q: `CCOC(=O)[C@H]1[C@H]2COc3ccc(Cl)cc3[C@@H]2N2C(=O)CN(Cc3ccco3)C(=O)[C@@]12C` was tested. Which Potency did it give?
A: inconclusive: 89.1 µM [inhibitor, single point]

Q: With `Cc1n[nH]c(C)c1CCC(=O)N/N=C/c1cccc([N+](=O)[O-])c1` as the molecule, how does the Potency read?
A: inconclusive: 70.8 µM [inhibitor, partial curve, poor fit]

Q: For `Cc1nc(Oc2ccc(F)cc2)c2c(C)c(C)sc2n1`, which Potency is on record?
A: inactive

Q: `COC(=O)C[C@H]1C=C[C@H](NS(=O)(=O)c2cn(C)cn2)[C@@H](CO)O1` was tested. Which Potency did it give?
A: inconclusive: 70.8 µM [inhibitor, single point]

Q: With `CC(C)CC1Nc2ncnc(N3CCOCC3)c2N(Cc2ccc(Br)cc2)C1=O` (configuration not stated) as the molecule, how does the Potency read?
A: inconclusive: 31.6 µM [inhibitor, partial curve]

Q: `Cc1ncc(CO)c2c1OC(C)(C)OC2` was tested. Which Potency did it give?
A: inactive

Q: With `Cc1ccccc1OCC(=O)NCC(c1ccccc1Cl)N1CCCCC1` (configuration not stated) as the molecule, how does the Potency read?
A: inconclusive: 39.8 µM [inhibitor, partial curve]

Q: Which Potency does the source give for `OC(CNC(=S)Nc1ccc(Cl)cc1Cl)COCc1ccco1` (configuration not stated) here?
A: inconclusive: 112 µM [inhibitor, partial curve, poor fit]

Q: Which Potency does the source give for `CSC1=N/C(=C\c2cccc(Br)c2)C(=O)S1` here?
A: inconclusive: 100 µM [inhibitor, single point]

Q: With `COc1ccc(NC(=O)c2c(NCc3ccc(C)o3)sc3c2CCC(C)C3)c(OC)c1` (configuration not stated) as the molecule, how does the Potency read?
A: inconclusive: 89.1 µM [inhibitor, partial curve, poor fit]

Q: `CCN(CC)CCN1C(=O)c2ccccc2NC1c1ccc(N(C)C)cc1` (configuration not stated) was tested. Which Potency did it give?
A: inactive

Q: With `COCCCn1c(SCc2cccc(C(F)(F)F)c2)nc2cc(OC)c(OC)cc2c1=N` as the molecule, how does the Potency read?
A: inconclusive: 79.4 µM [inhibitor, single point]

Q: `Cn1c(=O)oc2cc(S(=O)(=O)CCC(=O)N3CCN(c4ccccc4)CC3)ccc21` was tested. Which Potency did it give?
A: inconclusive: 56.2 µM [inhibitor, partial curve, poor fit]

Q: Which Potency does the source give for `COC(=O)c1cc(N=Nc2sc(N)nc2C)cc(C(=O)OC)c1` here?
A: inactive

Q: `Cc1ccc(-c2c(C(=O)O)c3ccccc3[nH]c2=O)cc1` was tested. Which Potency did it give?
A: inconclusive: 39.8 µM [inhibitor, partial curve, poor fit]

Q: Which Potency does the source give for `Cc1ccc(Nc2nc(-c3c(C)nc4ncccn34)cs2)cc1` here?
A: inconclusive: 31.6 µM [inhibitor, partial curve, poor fit]

Q: `CCOC(=O)/C(C#N)=C/Nc1ccccc1OC(F)(F)F` was tested. Which Potency did it give?
A: inconclusive: 112 µM [inhibitor, single point]

Q: With `COc1ccc(CCNC(=O)c2ccc3ccccc3n2)cc1` as the molecule, how does the Potency read?
A: inconclusive: 0.316 µM [inhibitor, full curve, poor fit]

Q: `CC(Nc1cc(N2CCNCC2)ccc1[N+](=O)[O-])c1ccccc1` (configuration not stated) was tested. Which Potency did it give?
A: inconclusive: 63.1 µM [inhibitor, partial curve, poor fit]

Q: For `NC(=O)C[C@H](N)c1cn([C@@H](CC(N)=O)C(=O)N2CCNCC2)nn1`, which Potency is on record?
A: inactive

Q: How did the Potency turn out when `O=C(CNC(=O)c1ccc2c(c1)OCO2)Nc1ncccc1O` was run?
A: inactive

Q: How did the Potency turn out when `C#CCOc1c(Cl)cc(/C=C(/C#N)C(=O)OCC)cc1OC` was run?
A: inactive

Q: For `CCOc1ccc(N2CC(C(=O)Nc3ccc(C)cn3)CC2=O)cc1` (configuration not stated), which Potency is on record?
A: inactive

Q: Which Potency does the source give for `O=C(Nc1nccs1)c1ccc[nH]c1=O` here?
A: inconclusive: 50.1 µM [inhibitor, partial curve, poor fit]

Q: For `Cc1nc2c(C(=O)NCc3ccccc3)c[nH]n2c(=O)c1Cl`, which Potency is on record?
A: inactive

Q: How did the Potency turn out when `CCN(C[C@H]1N[C@@](C)(C(=O)OC)[C@H]2C(=O)N(Cc3ccccc3)C(=O)[C@@H]12)C(=O)COC` was run?
A: inconclusive: 35.5 µM [inhibitor, partial curve, poor fit]

Q: Which Potency does the source give for `COC(=O)[C@@]1(C)[C@H]2C(=O)N(Cc3ccccc3)C(=O)[C@H]2[C@H]2CN=C(SCc3ccc(Cl)cc3)N21` here?
A: inconclusive: 31.6 µM [inhibitor, partial curve, poor fit]

Q: How did the Potency turn out when `CCCN(CCC)C(=O)Cn1c(=O)c2sccc2n2c(=S)sc(-c3ccccc3)c12` was run?
A: inactive

Q: `COC[C@H]1C[C@@H](NC(=O)Nc2ccc(F)cc2)[C@H](O)[C@@H]1O` was tested. Which Potency did it give?
A: inconclusive: 79.4 µM [inhibitor, full curve, poor fit]

Q: For `O=C1Nc2ccc(Cl)cc2C12OCCCO2`, which Potency is on record?
A: inconclusive: 5.01 µM [inhibitor, full curve]

Q: How did the Potency turn out when `Clc1cccc(-c2nc(NCCCN3CCOCC3)c3ccccc3n2)c1` was run?
A: inconclusive: 50.1 µM [inhibitor, partial curve, poor fit]

Q: For `CSc1ccc(-c2ccc3c(c2)c(Sc2ccccc2)c(-c2ccccc2)n3C)cc1`, which Potency is on record?
A: inconclusive: 0.224 µM [inhibitor, full curve, poor fit]

Q: For `Cc1c(Cl)ccc2c(C(=O)NCCN3CCCCC3)cc(-c3ccccn3)nc12`, which Potency is on record?
A: inconclusive: 50.1 µM [inhibitor, partial curve, poor fit]

Q: Which Potency does the source give for `Cc1ccc(OCC(=O)Nc2ccc(N(C)C)cc2)cc1` here?
A: inconclusive: 50.1 µM [inhibitor, partial curve, poor fit]

Q: For `COc1ccc(-c2cnnn2-c2ccc(NC(=O)c3ccc(S(=O)(=O)N(C)C)cc3)cc2)cc1`, which Potency is on record?
A: inactive

Q: For `COc1ccc(-c2cc(C[C@@H]3CC[C@H](O)[C@@H](CNC(=O)Nc4ccccc4)O3)no2)cc1`, which Potency is on record?
A: inconclusive: 7.94 µM [inhibitor, full curve]

Q: With `Cc1ccc(C(=O)N2CCC3(CC2)NC(=O)N(c2ccc(F)cc2)N3)cc1` as the molecule, how does the Potency read?
A: active: 3.16 µM

Q: `COc1ccc(CC(=O)N2CCC3(CC2)C(=O)NCN3C(=O)C2CCCC2)cc1` was tested. Which activity change, negative = inhibition did it give?
A: inactive: 8.7% [at 6.33 µM]

Q: Which Potency does the source give for `CN(C)C(=O)c1cc2c(c(-c3cccc(C4=CCCCC4)c3)n1)[C@@H](CCO)N(S(=O)C(C)(C)C)C2` (some centres not stated) here?
A: inconclusive: 112 µM [inhibitor, single point]

Q: With `CCCOc1ccc(-c2nn(-c3ccccc3)cc2C2NC(=O)NC(C)=C2C(=O)OC(C)C)cc1` (configuration not stated) as the molecule, how does the Potency read?
A: inconclusive: 100 µM [inhibitor, single point]

Q: Which Potency does the source give for `FC(F)(F)c1cccc(NC(=S)NCc2cccs2)c1` here?
A: inconclusive: 89.1 µM [inhibitor, partial curve, poor fit]

Q: How did the Potency turn out when `CCOc1ccccc1N(CC)C(=O)c1nn(C)c2c1CSc1ccccc1-2` was run?
A: inactive

Q: With `COc1ccc(N2CCN(S(=O)(=O)c3cc4c5c(c3)C(C)C(=O)N5CCC4)CC2)cc1` (configuration not stated) as the molecule, how does the Potency read?
A: inconclusive: 79.4 µM [inhibitor, partial curve, poor fit]

Q: How did the Potency turn out when `COC(=O)[C@]1(S(=O)(=O)c2ccccc2)CC(=O)N(Cc2ccccc2)[C@@H]1c1ccccc1` was run?
A: inactive

Q: `COC(=O)c1ccc(-c2noc(CN(C)CCC3CCCCO3)n2)cc1` (configuration not stated) was tested. Which Potency did it give?
A: inactive

Q: How did the Potency turn out when `COc1cccc(Oc2nc(-c3ccncc3)nc3ccccc23)c1` was run?
A: inconclusive: 89.1 µM [inhibitor, partial curve, poor fit]

Q: Which Potency does the source give for `O=C(CN(C(=O)c1csnn1)c1ccc(F)c(Cl)c1)NCc1ccc(F)cc1` here?
A: inconclusive: 126 µM [inhibitor, partial curve, poor fit]

Q: For `CNC(=O)NC(=O)CN(C)C1CCCC1`, which Potency is on record?
A: inactive

Q: How did the Potency turn out when `CCOC(=O)c1c(NC(=O)CC2Nc3ccccc3NC2=O)sc(C)c1C` (configuration not stated) was run?
A: inactive

Q: How did the Potency turn out when `Cc1cccc(C)c1NC(=O)C(C1CC1)n1c(=O)c(-c2ccco2)nc2ccccc21` (configuration not stated) was run?
A: inconclusive: 44.7 µM [inhibitor, partial curve, poor fit]

Q: Which Potency does the source give for `COC(=O)C1=C(C)N(Cc2ccc(C)cc2)C(=O)/C1=C\c1ccc(O)c(OC)c1` here?
A: active: 28.2 µM

Q: For `C=CCN(c1ccccc1OC)S(=O)(=O)c1cccc(C(=O)OCC(=O)N2CCOCC2)c1`, which Potency is on record?
A: inactive

Q: Which Potency does the source give for `CCOc1ccc(Cn2nnc3c(=O)[nH]c(C4CCN(C(=O)c5ccccc5)CC4)nc32)cc1` here?
A: inconclusive: 126 µM [inhibitor, partial curve, poor fit]
